Assay results published in patent publication US8653089B2, “Heterocyclic compounds and methods of use” (F. Hoffmann-La Roche AG, priority 2011, dated 2014).
At least one structure is not confirmed: it was looked up by name or label, or the drawing left a doubt.

Sequences of proteins named here, by UniProt entry; tags and fusion partners are left off.
UniProt P42336, whole entry: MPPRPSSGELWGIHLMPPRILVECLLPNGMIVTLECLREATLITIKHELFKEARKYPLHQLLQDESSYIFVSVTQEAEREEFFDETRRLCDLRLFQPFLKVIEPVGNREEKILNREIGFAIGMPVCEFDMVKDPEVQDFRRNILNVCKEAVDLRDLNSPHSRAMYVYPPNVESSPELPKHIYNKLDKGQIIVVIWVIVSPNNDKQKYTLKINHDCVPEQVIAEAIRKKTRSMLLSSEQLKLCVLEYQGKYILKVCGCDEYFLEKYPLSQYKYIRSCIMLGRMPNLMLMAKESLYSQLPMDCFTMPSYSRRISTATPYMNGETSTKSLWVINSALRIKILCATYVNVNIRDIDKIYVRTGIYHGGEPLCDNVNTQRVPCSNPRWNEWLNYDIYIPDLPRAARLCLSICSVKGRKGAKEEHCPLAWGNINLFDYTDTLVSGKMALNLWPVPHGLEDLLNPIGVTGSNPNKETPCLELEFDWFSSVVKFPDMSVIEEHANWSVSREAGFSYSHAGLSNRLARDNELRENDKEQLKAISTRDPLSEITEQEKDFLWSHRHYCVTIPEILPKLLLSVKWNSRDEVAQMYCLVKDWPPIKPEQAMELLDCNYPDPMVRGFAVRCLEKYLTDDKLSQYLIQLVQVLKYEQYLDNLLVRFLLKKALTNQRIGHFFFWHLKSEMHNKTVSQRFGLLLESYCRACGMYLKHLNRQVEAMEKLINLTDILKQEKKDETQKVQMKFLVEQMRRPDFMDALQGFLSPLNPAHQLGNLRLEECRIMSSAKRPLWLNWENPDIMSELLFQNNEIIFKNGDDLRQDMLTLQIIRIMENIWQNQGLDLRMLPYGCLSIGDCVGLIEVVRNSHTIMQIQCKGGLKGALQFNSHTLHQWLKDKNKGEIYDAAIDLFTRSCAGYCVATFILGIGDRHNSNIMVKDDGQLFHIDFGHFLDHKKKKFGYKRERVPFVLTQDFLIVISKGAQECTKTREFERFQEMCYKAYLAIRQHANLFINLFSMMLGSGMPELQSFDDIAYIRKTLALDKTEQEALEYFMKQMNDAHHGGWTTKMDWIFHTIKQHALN

Biological target: T1, p110 alpha (Homo sapiens, UniProt P42336)
T1 construct: purchased Upstate Group, Millipore; Dundee, UK
Assay: PI3K isoform inhibition assay, p110 alpha (delta/alpha selectivity)
Assay type: biochemical
Conditions: delta/alpha selectivity ratio
Method: PI3K enzymatic activity was assayed by measuring the amount of product phosphatidylinositol 3,4,5-phosphate (PIP3) formed from substrate 4,5 phosphatidylinositol 4,5-phosphate (PIP2) using a fluorescence polarization displacement assay. The decrease in fluorescence polarization of a fluorescent PIP3 probe is measured as it is displaced from a PIP3-binding protein GRP-1detector by PI3K-catalyzed product. Assays were conducted in 384-well black Proxiplates in the presence of 10 mM Tris (pH 7.5), 50 mM NaCl, 4 mM MgCl2, 5% glycerol, 25 μM ATP, 10 μM PIP2 (Echelon Biosciences), 0.05% 3-[(3-cholamidopropyl)dimethylammonio]-1-propanesulfonate, 1 mM dithiothreitol, and 2% DMSO. […] The reactions were stopped at timepoints that yielded a fixed change in fluorescence polarization consistent with initial rate conditions (typically 30 minutes), by the addition of 12.5 mM EDTA, 100 nM GRP-1 detector, and 5 nM tetramethylrhodamine-labeled PIP3 (TAMRA-PIP3; Echelon Biosciences). After 60 minutes of incubation at room temperature to allow equilibration of labeled and unlabeled PIP3 binding, the parallel and perpendicular components of the fluorescence emissions from each sample were measured at an excitation wavelength of 530 nm and an emission wavelength of 590 nm using an Envision fluorescent plate reader with a rhodamine filter (PerkinElmer Life and Analytical Sciences; Wellesley, Mass.). […]

| Compound | IC50 p110 alpha/IC50 p110 delta (greater than or equal to, ≧) |
| --- | --- |
| Nc1ncnc2c1ccn2Cc1nc2ccccc2n1-c1ccccc1 [Example 139, 7-((1-phenyl-1H-benzo[d]imidazol-2-yl)methyl)-7H-pyrrolo[2,3-d]pyrimidin-4-amine] | ≥ 7 |
| Cc1nn(Cc2nc3ccccc3n2-c2ccccc2)c2ncnc(N)c12 [Example 142, 3-methyl-1-((1-phenyl-1H-benzo[d]imidazol-2-yl)methyl)-1H-pyrazolo[3,4-d]pyrimidin-4-amine] | ≥ 8 |
